Results: publication PMC5414047
No constants are given. Whether binding was seen depends on the method and setting. Binding seen in cells or lysates may run through a third protein. These calls come from enrichment with a bait or labelling near it, and not all partners need be listed.

Chains of the proteins cited; added tags and fusions are not shown. Residues count along the entry.
UniProt Q9UNN5: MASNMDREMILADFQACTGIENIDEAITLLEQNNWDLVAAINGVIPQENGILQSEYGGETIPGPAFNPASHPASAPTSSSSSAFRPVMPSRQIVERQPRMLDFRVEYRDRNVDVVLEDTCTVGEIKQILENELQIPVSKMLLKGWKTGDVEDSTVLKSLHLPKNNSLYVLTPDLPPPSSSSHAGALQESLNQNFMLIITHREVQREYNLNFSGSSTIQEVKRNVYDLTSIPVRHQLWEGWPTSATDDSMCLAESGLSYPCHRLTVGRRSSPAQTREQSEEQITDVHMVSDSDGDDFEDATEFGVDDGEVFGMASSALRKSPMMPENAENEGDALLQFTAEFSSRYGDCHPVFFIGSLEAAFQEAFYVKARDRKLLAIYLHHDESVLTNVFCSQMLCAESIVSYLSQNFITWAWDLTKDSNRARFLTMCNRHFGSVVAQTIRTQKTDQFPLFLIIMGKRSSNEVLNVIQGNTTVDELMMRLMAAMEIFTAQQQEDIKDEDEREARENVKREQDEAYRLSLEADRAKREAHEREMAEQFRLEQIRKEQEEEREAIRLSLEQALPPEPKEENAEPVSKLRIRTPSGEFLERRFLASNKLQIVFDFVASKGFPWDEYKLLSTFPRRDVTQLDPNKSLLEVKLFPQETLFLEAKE
UniProt P37173, residues 23-567: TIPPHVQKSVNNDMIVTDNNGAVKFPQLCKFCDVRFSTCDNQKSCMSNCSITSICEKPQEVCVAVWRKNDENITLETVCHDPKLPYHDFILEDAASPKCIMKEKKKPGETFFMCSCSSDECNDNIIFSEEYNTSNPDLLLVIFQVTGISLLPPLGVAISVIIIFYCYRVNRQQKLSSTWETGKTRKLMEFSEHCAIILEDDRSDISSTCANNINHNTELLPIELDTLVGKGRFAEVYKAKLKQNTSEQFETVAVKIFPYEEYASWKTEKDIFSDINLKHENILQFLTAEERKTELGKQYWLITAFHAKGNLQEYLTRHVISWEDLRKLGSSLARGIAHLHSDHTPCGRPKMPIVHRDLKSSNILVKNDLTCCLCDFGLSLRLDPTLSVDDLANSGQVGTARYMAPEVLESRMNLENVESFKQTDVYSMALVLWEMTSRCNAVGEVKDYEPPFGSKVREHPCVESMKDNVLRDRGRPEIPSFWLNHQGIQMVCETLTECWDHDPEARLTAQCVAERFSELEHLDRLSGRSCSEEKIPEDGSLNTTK
UniProt O95292: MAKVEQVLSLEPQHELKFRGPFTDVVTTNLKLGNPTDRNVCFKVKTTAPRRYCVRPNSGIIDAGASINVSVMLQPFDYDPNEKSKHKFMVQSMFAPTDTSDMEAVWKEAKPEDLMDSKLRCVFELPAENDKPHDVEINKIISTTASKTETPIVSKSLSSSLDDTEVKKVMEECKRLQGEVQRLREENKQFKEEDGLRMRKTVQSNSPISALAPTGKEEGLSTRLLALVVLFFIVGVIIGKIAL

What was measured:
Flag-FAF1 wt = Flag-FAF1 wt (UniProt Q9UNN5); assay: affinity purification with mass spectrometry; anti-Flag-FAF1 immunoprecipitants; cell line not stated
[1] = target: FLAG-tagged TGF-β type II serine/threonine kinase receptor (TβRII-Flag) (UniProt P37173); assay: affinity purification with mass spectrometry; TβRII-Flag immunoprecipitants from cells without (sample A) and with (sample B) NH4Cl (25 mM); cell line not stated

Substance	binding (Flag-FAF1 wt)	binding [1]
VAPB (from UniProt O95292 1-243)	binds	–
FAS-associated factor 1 (FAF1), endogenous (from UniProt Q9UNN5 1-650)	–	binds
